Reference: patent US20230312713A1
No constants are given. Whether binding was seen depends on the method and setting. Some binding calls cover weakened binding; strength is not graded here. Sequences can lack the tags named with a protein.

Molecular target: T1, His-tagged, recombinant mouse FAP (ab271506, Abcam) (mouse) (UniProt P97321)
T1 sequence (looked up): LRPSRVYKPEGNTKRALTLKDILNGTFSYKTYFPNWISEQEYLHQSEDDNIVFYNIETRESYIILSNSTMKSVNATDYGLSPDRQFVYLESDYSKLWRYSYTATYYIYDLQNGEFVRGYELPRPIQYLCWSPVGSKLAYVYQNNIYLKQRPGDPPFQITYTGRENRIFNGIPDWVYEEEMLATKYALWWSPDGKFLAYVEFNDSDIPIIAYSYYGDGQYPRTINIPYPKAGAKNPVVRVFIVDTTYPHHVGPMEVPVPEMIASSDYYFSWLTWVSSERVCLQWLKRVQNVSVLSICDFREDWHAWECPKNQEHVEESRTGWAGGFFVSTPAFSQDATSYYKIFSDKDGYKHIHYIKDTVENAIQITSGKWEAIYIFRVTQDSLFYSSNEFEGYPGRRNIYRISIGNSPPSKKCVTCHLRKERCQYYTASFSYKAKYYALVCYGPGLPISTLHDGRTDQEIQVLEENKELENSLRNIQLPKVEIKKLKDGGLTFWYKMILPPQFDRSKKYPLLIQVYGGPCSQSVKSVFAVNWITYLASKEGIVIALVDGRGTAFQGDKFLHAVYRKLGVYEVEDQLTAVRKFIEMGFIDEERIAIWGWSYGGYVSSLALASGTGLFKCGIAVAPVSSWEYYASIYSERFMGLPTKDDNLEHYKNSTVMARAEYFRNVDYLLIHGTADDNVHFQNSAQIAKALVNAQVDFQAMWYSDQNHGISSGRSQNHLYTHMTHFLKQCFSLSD
Assay: flow cytometry; splenic T cells stained with His-tagged recombinant FAP and anti-His-PE

B1: FAPCAR (murine-FAPCAR; CAR containing the scFv fragment from mouse-specific FAP monoclonal antibody clone 73.3 with mouse CD3zeta and CD28 cytoplasmic … (protein)
chain: GSQVQLKESGGGLVQPGGSLKLSCAASGFTFSSYGMSWVRQTADKRLELVATTNNNGGVTYYPDSVKGRFTISRDNAKNTLYLQMSSLQSEDTAMYYCARYGYYAMDYWGQGISVTVSSGGGGSGGGGSSGGGSDVLMTQTPLSLPVSLGDQASISCRSSQSIVHSNGNTYLEWYLQKPGQSPKLLIYKVSNRFSGVPDRFSGSGSGTDFTVKISRVEAEDLGVYYCFQGSHVPYTFGGGTKLEIKAAATTTKPVLRTPSPVHPTGTSQPQRPEDCRPRGSVKGTGLDFACDIYIWAPLAGICVALLLSLIITLICYHRSRNSRRNRLLQVTTMNMTPRRPGLTRKPYQPYAPARDFAAYRPRAKFSRSAETAANLQDPNQLYNELNLGRREEYDVLEKKRARDPEMGGKQQRRRNPQEGVYNALQKDKMAEAYSEIGTKGERRRGKGHDGLYQGLSTATKDTYDALHMQTLAPR
binding: binds
